The other results are listed elsewhere or left out. Further columns of the screen follow, without active or inactive calls. The list favours compounds with an active or inconclusive main result. Potencies come from curve fits of mixed quality, noted in brackets.

In general, AC50 refers to the concentration at which the activity in the assay is half-maximal.

The nature of this assay: qHTS Assay to Find Inhibitors of Chronic Active B-Cell Receptor Signaling. Conditions: ABC-DLBCL IkBa-CBG/CBR reporter, luminescence ratio (green luciferase fused to IkBa over red control in TMD8 lymphoma cells), 4 h. The essentials:
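Concentration-response series (up to 46 uM) were applied to TMD8 dual-reporter cells for 4 h at 37C with doxycycline. Green/red ratio, after filter-overlap correction, defined %Activity; red signal alone was normalised to basal cells and zero luminescence.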
On the technique in general: Quantitative high-throughput screening tests each substance at several concentrations.

Where [1] appears, read: measured here: CBR red luminescence, cell number.
[2] abbreviates: measured here: IkBa-CBG green luminescence.

As for `O=C(OCCc1ccccc1)c1cc(O)c(O)c(O)c1`, the AC50 under setting [1] was 0.092 µM [rising, full curve, poor fit].

Take `COC(=O)c1c(-c2ccc(OC)cc2)sc2ccc(OC)cc12`: the AC50 under setting [1] is 25.9 µM [rising, partial curve, poor fit].

Regarding `CCCSc1nnc(NC(=O)c2ccco2)s1`, under setting [1], the AC50 was 7.94 µM [falling, partial curve].

Take `O=c1cc(/C=C/c2cccs2)[nH]c2ccccc12`: the AC50 under setting [1] is 2.06 µM [falling, full curve, poor fit].

Take `COc1ccc(/C=C/C(=O)Nc2ccc(-n3nncc3-c3ccccc3)cc2)cc1OC`: under setting [1], the AC50 was 11.6 µM [falling, single point].

Take `S=C1NC2(CCCCC2)NN1c1ccccc1`: under setting [1], the AC50 was 35.5 µM [rising, single point].

In the case of `CCc1ccc(CCC(=O)Nc2ccc(C)c(C)c2)o1`, under setting [1], the concentration at half-maximal activity (AC50) is 0.82 µM [falling, partial curve, poor fit].

Take `COc1cn(-c2ccccc2)nc1C(=O)OCC(=O)Nc1ccc(C)c(C)c1`: the AC50 under setting [1] was 25.9 µM [rising, partial curve, poor fit].

Regarding `CCOC(=O)c1sc(C)c2c1NC1(CCCCC1)NC2=O`, the AC50 under setting [1] was 35.5 µM [falling, single point].

Consider `CCCCCSc1nnc2c(n1)OC(c1cccn1C)N(C(C)=O)c1ccccc1-2` (configuration not stated), for which the AC50 under setting [1] is 10 µM [falling, partial curve].

For the compound `O=C(Nc1cc(S(=O)(=O)N2CCOCC2)ccc1N1CCOCC1)c1ccccc1Cl`, under setting [1], the AC50 is 23.1 µM [rising, single point].

As for `COc1cccc(OC)c1C(=O)OCC(=O)Nc1ccc(OC(F)(F)F)cc1`, under setting [1], the AC50 was 14.6 µM [falling, partial curve, poor fit].

Consider `Cc1cc(NC(c2ccc(Cl)cc2)c2ccc3cccnc3c2O)no1` (configuration not stated), for which, under setting [1], the AC50 was 1.64 µM [falling, partial curve, poor fit].

With `Cc1nc(-c2ccc(C(=O)Nc3ccc(F)cc3)cc2)cs1`, the AC50 under setting [1] was 3.16 µM [falling, partial curve, poor fit].

Take `COn1c(=S)[nH]c2ccccc2c1=O`: the AC50 under setting [1] was 3.16 µM [rising, partial curve, poor fit].

Consider `NS(=O)(=O)c1cccc(NC(=O)CSc2nnc(-c3ccccc3)o2)c1`, for which the AC50 under setting [1] is 7.31 µM [falling, partial curve].

Turning to `CNCC(=O)Nc1ccc(Cl)c(C(F)(F)F)c1`, under setting [1], the AC50 is 1.78 µM [rising, partial curve, poor fit].

With `CCOC(=O)[C@H]1[C@H]2COc3ccc(C)cc3[C@@H]2N2C(=O)c3ccc(F)cc3NC(=O)[C@@]12C`, the AC50 under setting [1] is 5.8 µM [falling, single point].

Take `CC1=C(C(=O)OC2CCCCC2)C(c2cccc([N+](=O)[O-])c2)NC(=O)N1` (configuration not stated): the AC50 under setting [1] is 35.5 µM [falling, single point].

`O=C1c2cccc(OCC(=O)N3N=C(c4cccs4)CC3c3ccc(F)cc3)c2CCN1Cc1cccnc1` (configuration not stated): under setting [1], the AC50 was 16.4 µM [falling, partial curve, poor fit].

`O=C(N/N=C/c1ccccc1Cl)c1[nH]c2ccc(Br)cc2c1-c1ccccc1`: the AC50 under setting [1] was 1.3 µM [rising, full curve] and the AC50 under setting [2] was 1.64 µM [falling, full curve].

As for `O=C(Nc1nc2ccc([N+](=O)[O-])cc2s1)c1c(F)cccc1F`, the AC50 under setting [1] was 5.62 µM [falling, partial curve, poor fit].

For the compound `O=C(Nc1ccc(Cl)cc1F)C1CCN(S(=O)(=O)c2cccc3nonc23)CC1`, the AC50 under setting [1] is 6.31 µM [falling, single point].

`Cn1c(=O)c2nnn(/N=C(\c3ccccc3)C3CC3)c2n(C)c1=O`: the AC50 under setting [1] is 22.4 µM [falling, single point].

Regarding `N/C(=N\OC(=O)c1ccc2c(c1)OCO2)c1cccc(Br)c1`, the AC50 under setting [1] is 5.62 µM [rising, single point].

With `N#Cc1cccc(NC(=O)Nc2cccs2)c1`, the AC50 under setting [1] is 5.01 µM [rising, partial curve, poor fit].

Turning to `O=C(COc1ccc(Cl)cc1)N1CCCC1`, under setting [1], the half-maximal activity concentration (AC50) was 1.16 µM [falling, full curve].

For `O=C(Cc1cccc(NC(=O)C2CCCN(C(=O)CCc3ccccc3)C2)c1)Nc1cccc(C(=O)N2CCCC2)c1` (configuration not stated), the AC50 under setting [1] is 20.6 µM [falling, single point].

As to `CC(C)(C)c1cc[n+](C2=C([O-])c3ccccc3C(=O)/C2=N\S(=O)(=O)c2cccs2)cc1`, the concentration at half-maximal activity (AC50) reads like this: under setting [1], 7.94 µM [falling, partial curve, poor fit]; under setting [2], 8.91 µM [rising, partial curve, poor fit].

Take `O=[N+]([O-])c1ccc(-c2cnc(SCc3ccccc3Cl)[nH]2)cc1`: the AC50 under setting [1] was 10 µM [falling, partial curve].

With `O=C(NCc1ccco1)c1cc2cc(Br)ccc2o1`, the AC50 under setting [1] is 11.2 µM [falling, partial curve, poor fit].

For the compound `O=C(Cn1cnc2c(nnn2Cc2ccccc2)c1=O)N1CCN(c2ccccc2)CC1`, the half-maximal activity concentration (AC50) under setting [1] was 9.2 µM [rising, single point].

Take `COc1ccccc1C(=O)NNC(=O)c1ccc(NS(=O)(=O)c2cccs2)cc1`: the AC50 under setting [1] was 7.94 µM [falling, partial curve].

Take `Cc1sc(NC(=O)CCCC(=O)O)c(C(N)=O)c1-c1ccccc1`: the AC50 under setting [1] is 3.98 µM [falling, full curve, poor fit].

In the case of `O=C(Cn1nnc(-c2ccccc2F)n1)OCC(=O)c1ccccc1`, the AC50 under setting [1] was 4.47 µM [falling, full curve].

As to `Nc1c(C(=O)OCC2CCCO2)c2nc3ccccc3nc2n1C1CCCC1` (configuration not stated), the AC50 under setting [1] is 2.91 µM [rising, single point].

For the compound `Cc1ccc(CNC(=O)c2c(Nc3ccccc3C)sc(C(=O)c3ccc(F)cc3)c2N)cc1`, the half-maximal activity concentration (AC50) under setting [2] is 25.1 µM [falling, single point].

On to `O=C(Nc1ccc2snnc2c1)Nc1cccc2ccccc12`, for which the AC50 under setting [1] is 0.731 µM [falling, full curve, poor fit].

As for `C/C(CC(=O)Nc1ccc(N(C)C)cc1)=N\NC(=O)c1ccncc1`, the AC50 under setting [1] is 35.5 µM [falling, single point].

Take `CCOC(=O)c1ccc(N2C(=O)CC(NNC(=O)c3ccc(Br)s3)C2=O)cc1` (configuration not stated): under setting [1], the AC50 is 14.1 µM [falling, single point].

Values taken from PubChem BioAssay AID493014 (National Center for Advancing Translational Sciences (NCATS), 2011).
